Several values for one entry are separate records, joined by “and”; a condition that tells them apart may be missing. Identical values can stand only once. Counter-ions that a name gives are not always drawn.
Tested on: protein bond
Assay: Frequencies of the HF (E) field with maximum separation effect for protein-bound uremic toxins
Type: in vitro ADME
Details: E field bands 80-120 MHz and 120-170 MHz

Compound | Suitable frequencies in the HF field (E field): ranges at which the maximum separation effect was determined
O=S(=O)(O)Oc1c[nH]c2ccccc12 [IDS, indoxyl sulfate] | 110 MHz and 110-111 MHz and 111 MHz and 140-141 MHz
Cc1ccc(OS(=O)(=O)O)cc1 [pCRS] | 151-152 MHz and 110 MHz and 110-111 MHz and 111 MHz and 140-141 MHz
